According to article PMC5750471:
No constants are given. Whether binding was seen depends on the method and setting. Binding seen in cells or lysates may run through a third protein. Tags and fused reporters may be left off the sequences shown.

Amino acid sequences for entries named in this document (tags omitted). Residues count along the entry.
UniProt Q92542, residues 34-709: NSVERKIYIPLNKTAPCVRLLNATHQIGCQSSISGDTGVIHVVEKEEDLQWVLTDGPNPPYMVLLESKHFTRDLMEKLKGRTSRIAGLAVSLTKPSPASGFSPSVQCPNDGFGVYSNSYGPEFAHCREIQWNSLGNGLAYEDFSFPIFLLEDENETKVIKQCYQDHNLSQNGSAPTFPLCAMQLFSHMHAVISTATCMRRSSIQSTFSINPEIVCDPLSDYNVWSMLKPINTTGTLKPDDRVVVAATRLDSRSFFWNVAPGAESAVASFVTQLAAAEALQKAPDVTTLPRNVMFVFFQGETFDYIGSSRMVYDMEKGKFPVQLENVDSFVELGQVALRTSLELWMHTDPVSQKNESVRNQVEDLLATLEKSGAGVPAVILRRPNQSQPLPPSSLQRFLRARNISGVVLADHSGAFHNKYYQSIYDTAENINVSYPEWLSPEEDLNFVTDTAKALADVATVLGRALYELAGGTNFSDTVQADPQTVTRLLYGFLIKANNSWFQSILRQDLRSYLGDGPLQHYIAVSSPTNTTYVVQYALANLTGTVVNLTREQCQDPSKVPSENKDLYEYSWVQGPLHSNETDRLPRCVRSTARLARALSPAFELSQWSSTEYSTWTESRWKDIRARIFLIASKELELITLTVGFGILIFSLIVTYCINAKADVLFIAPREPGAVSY

Target: T1, TREM2 (triggering receptor expressed on myeloid cells 2) with a Myc-tag at the C terminus, wild type (human) (UniProt Q9NZC2)
T1 sequence: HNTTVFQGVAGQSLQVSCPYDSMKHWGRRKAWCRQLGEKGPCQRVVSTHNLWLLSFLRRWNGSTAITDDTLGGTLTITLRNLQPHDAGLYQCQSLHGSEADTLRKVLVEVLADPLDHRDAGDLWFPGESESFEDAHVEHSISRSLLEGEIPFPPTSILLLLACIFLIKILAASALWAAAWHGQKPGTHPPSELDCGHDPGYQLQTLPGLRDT
Assay: co-IP; HEK293-TREM2 cells transfected with PS1; lysis in 1% Nonidet P-40, 50 mM Tris-HCl, 150 mM NaCl, 2 mM EDTA, pH 7.4; IP with Myc antibody or control IgG, Dynabeads Protein G, 4 °C overnight; blots with Ab14, anti-PS1 loop and NCT antibodies

binding: no binding
Substance: nicastrin (NCT) (from UniProt Q92542 34-709)
